# From the supplement of paper PMC5949888
# Most values lie at the floor of the assay. Slopes are relative: functional sequences can read slightly below zero.
# Test system: Saccharomyces cerevisiae PS128 hsf1 delta, HSF1(1-493) fusion
# Experiment: growth estimate (transactivation domain function in HSF1 fusion, heat-shock survival) (a.u. (slope of normalised read count over time)); higher = stronger growth at 37°C, i.e. more transactivation activity
# Conditions: library: random library
row,Substance,growth estimate
1,VMVPDTLYCILPVPTACRVR,< -0.25
2,NGMSCGYWDTGTGRCRQHGL,< -0.25
3,PSSRI,< -0.25
4,YMPFTAQVLVFRSDETGPVG,< -0.25
5,TAIVLSKAVLPCESKSCLYH,< -0.25
6,RGMLKGDRSVWGSMVVLVGT,< -0.25
7,TCRALKGFRRALDRAPLPLA,< -0.25
8,ASRTNI,< -0.25
9,RGTKTG,< -0.25
10,CTVG,< -0.25
11,EVASLD,< -0.25
12,VRCWL,< -0.25
13,GSGGVQGVMVVL,< -0.25
14,IYWGIVPVITAKVLDVPGQA,< -0.25
15,TGFVN,< -0.25
16,ICFNRCC,< -0.25
17,TDIPDSYTPDTSKTLTHHQR,< -0.25
18,PLLRSQ,< -0.25
19,PCVSVLLFPIVLELLWTNPH,< -0.25
20,NRKRKIVLEANTYC,< -0.25
21,PNGGEGVKHEVSVD,< -0.25
22,ISPSFQDYVVWSLHYQCREV,< -0.25
23,TWGNTCILGIACQLLLYLSW,-0.248

row,Substance,growth estimate
1,TKWLNCSSGLANMSIMAEGR,< -0.25
2,LSERE,< -0.25
3,GRERYWRSYKNVTDVGRFIV,< -0.25
4,EHSG,< -0.25
5,ARWVTN,-0.246
6,TFQTA,< -0.25
7,HETNSEAWL,< -0.25
8,PSRPRKFIRELTALVKYNPI,< -0.25
9,LHVRSGDASLGGSG,< -0.25
10,FTDVLFFGGRTKATYHPSAK,< -0.25
11,GDPCASKLDTELPRCCSEDL,< -0.25
12,AIRLGNSCGNGL,< -0.25
13,ASVS,< -0.25
14,MLHISVSLLWGS,< -0.25
15,TGGHASGWQHESTETPIRDI,< -0.25
16,LYNGGGTPRRRLGNTVLRPI,< -0.25
17,DRS,< -0.25
18,SGWRQLGTKNQVLQGRARAK,< -0.25
19,LQSRFVDNGLLCALNAALAA,< -0.25
20,RGCI,< -0.25
21,DILEG,< -0.25
22,WLVPYE,< -0.25
23,VHWENLPGTGSKPCQSERER,< -0.25

row,Substance,growth estimate
1,THRWSEARLVSDSNVRLARL,< -0.25
2,LYVCLGG,< -0.25
3,GTLWNEREGRGRFGHSTKSR,-0.243
4,PCYSTCILVMQ,< -0.25
5,FCQVQGSAANYQSA,< -0.25
6,GATTIVS,< -0.25
7,PRSPLYPAPPGDNRTMNSLG,-0.23
8,SLSCAGYACPGLSNCASRWL,< -0.25
9,NPE,< -0.25
10,DEQ,< -0.25
11,DCRFARDSLIRLDEKEWEKC,< -0.25
12,TALT,< -0.25
13,VRPRGPYAVILFSDDPNLHV,< -0.25
14,AIKVLFRSPGVGRYFYTELE,< -0.25
15,RETWLT,< -0.25
16,ANDFALNYRVPGRVVCQPGI,< -0.25
17,ATGVGGVLASREDRKNRVGR,< -0.25
18,TRPAYNSRANA,< -0.25
19,TKS,< -0.25
20,RERGAKTDALLIKRGPTVRY,< -0.25
21,ETILRDGSWHTLFFPKTFYV,-0.245
22,DCNSRRQFSALVD,< -0.25
23,FVRRKA,< -0.25

# Given bar-delimited: entries from further up.
row | Substance | growth estimate
6 | GATTIVS | < -0.25
7 | PRSPLYPAPPGDNRTMNSLG | -0.23
8 | SLSCAGYACPGLSNCASRWL | < -0.25
9 | NPE | < -0.25
10 | DEQ | < -0.25

# A section taken from the entries so far, as a working copy:
row,Substance,growth estimate
22,DCNSRRQFSALVD,< -0.25
23,FVRRKA,< -0.25

# Remaining list, next part:

row,Substance,growth estimate
1,VLSASLTRYQCSRGDHVWPS,< -0.25
2,LESWFKWRKPQRSPRKLEVF,< -0.25
3,TARL,< -0.25
4,QRDLDVC,< -0.25
5,LYVGSAESGSWM,< -0.25
6,GLPPVRVLQQPLSRKRGTAH,< -0.25
7,PIS,< -0.25
8,SQRSVRIRRTVRSIPDRHFR,< -0.25
9,GTLTGVSLGPMRHRCVFIGG,< -0.25
10,NWVEDRSASYHRCYQSTFLP,< -0.25
11,KHEGGGPWAVIFSKREVWLA,< -0.25
12,SQKQPPLSPAPSGSARI,< -0.25
13,HHVIGESLEERQ,< -0.25
14,RMRGDCAASPIRACLSSKAQ,< -0.25
15,GIAKW,< -0.25
16,ATRTYT,< -0.25
17,DAAA,< -0.25
18,SEERVWDMGESKTVLLWFQP,< -0.25
19,CGT,< -0.25
20,IRNVRVACAPRRDEGSIDIT,< -0.25
21,HREVELDCLNLSPRGMGLAE,< -0.25
22,CGLPKALV,< -0.25
23,TGVVWGQLTGTMLEPS,< -0.25

row,Substance,growth estimate
1,LLLTVAHPPRSVSAFNAKTQ,< -0.25
2,GNACTDKEMASDLVMQAGSM,< -0.25
3,VRQASFV,-0.243
4,TRFAKHATTWV,< -0.25
5,RSGV,< -0.25
6,LRFRVPDF,< -0.25
7,FYGRLQLACEDLEIAGGRRP,< -0.25
8,VVTRGGLLSWKHSRPHNEIA,< -0.25
9,YAAAAASWANRL,< -0.25
10,VTGADTDRTTGLVHNRADTG,< -0.25
11,QLLGDLVVGFRLVYRSGPRP,< -0.25
12,RRREVGRQPLEFCHNLRCRS,< -0.25
13,QIWWPVFDGACTDKLSVGCP,< -0.25
14,RVSDLLGRFAHRESRGHLGI,< -0.25
15,ASATDAIARAGADSLVAVPC,< -0.25
16,RHGSHDYQDNCEGARTGLCL,< -0.25
17,HSYA,< -0.25
18,RNGRCVLFNGRRSGW,< -0.25
19,RVYCLL,< -0.25
20,SGEDTGPVVSRTG,< -0.25
21,TGLLQVWASSRSVRQPTRPE,< -0.25
22,KEIRHWL,< -0.25
23,YGGATVV,< -0.25

row,Substance,growth estimate
1,SLAPRDHCM,< -0.25
2,CLRSRPIAFASRLVLKFRLR,< -0.25
3,VWGVGERRTCLDVRRKVLTH,< -0.25
4,RIRKGAALILTKRIACLVSA,< -0.25
5,WKTPGSCLGSL,< -0.25
6,QCRAPGFATRHLLTVLHLNL,< -0.25
7,GGRSYKINAHRQSFSLGRRL,< -0.25
8,TDN,< -0.25
9,MFVGRRTLLVLTRNRSLDSR,< -0.25
10,SLLYT,< -0.25
11,CTG,< -0.25
12,ATSEGL,< -0.25
13,GGGNWQHVRLVDNGVDGAGP,< -0.25
14,RSPRDCSLSVPDSCRLSVAA,< -0.25
15,YYPESLEC,< -0.25
16,QAARQAFIKE,< -0.25
17,PGKLVFVVMQVVDRLRHSKV,< -0.25
18,LVALSRPTQPSCP,< -0.25
19,INR,< -0.25
20,RILRDIPGS,< -0.25
21,GRSFCTLDASLGWVQSGRAR,< -0.25
22,RVWLQRQFACPQAQVCSVNL,< -0.25
23,SSHITLHPQRHTRWVTPLNV,< -0.25

row,Substance,growth estimate
1,DRVSDRE,< -0.25
2,LPVCSDS,< -0.25
3,VRTHEGTSRLPKRTFLAEPH,< -0.25
4,IPLADGLEVQPGMECSRSWN,< -0.25
5,IGQRIQCIKLLQGTTIYMVN,< -0.25
6,NVRECNR,< -0.25
7,TPEYPTRGVSHLSIFCPASR,< -0.25
8,KKQPVDWGQLRVSTHIL,< -0.25
9,GLSMFDG,< -0.25
10,AGYFHVPAQRRSVVSPRRPR,< -0.25
11,RVRRPLASNSWRGEGYALCP,< -0.25
12,SWGIAQ,< -0.25
13,ADP,< -0.25
14,CRNTALSSAKTFHPGESLGL,< -0.25
15,SGYC,< -0.25
16,TACVGL,< -0.25
17,THLGSSHGGSRNRSSKLSSV,< -0.25
18,VRIVEKVDRTANCGSAPLSV,-0.246
19,SRYRDNQFYAIGAVKLGIIS,< -0.25
20,QHISFPIRRHFGPFLVRTNC,< -0.25
21,LTPVTRLRRLLCCAAV,< -0.25
22,NVMRSLTRSGKVRSSRMAVD,< -0.25
23,YEWFPGMSA,< -0.25

# In another format: entries from further up.
row	Substance	growth estimate
4	IPLADGLEVQPGMECSRSWN	< -0.25
5	IGQRIQCIKLLQGTTIYMVN	< -0.25
6	NVRECNR	< -0.25
